Test results published in doi:10.1101/2024.09.19.613872.
No constants are given. Whether binding was seen depends on the method and setting. Binding seen in cells or lysates may run through a third protein. Some results given as binding are weak or reduced against the parent protein; the word gives no strength.

By UniProt entry, the sequences of proteins in these tests, tags left out. Where a name states a change or a piece, a line headed by the entry shows the natural chain unless it says otherwise.
UniProt Q96C45: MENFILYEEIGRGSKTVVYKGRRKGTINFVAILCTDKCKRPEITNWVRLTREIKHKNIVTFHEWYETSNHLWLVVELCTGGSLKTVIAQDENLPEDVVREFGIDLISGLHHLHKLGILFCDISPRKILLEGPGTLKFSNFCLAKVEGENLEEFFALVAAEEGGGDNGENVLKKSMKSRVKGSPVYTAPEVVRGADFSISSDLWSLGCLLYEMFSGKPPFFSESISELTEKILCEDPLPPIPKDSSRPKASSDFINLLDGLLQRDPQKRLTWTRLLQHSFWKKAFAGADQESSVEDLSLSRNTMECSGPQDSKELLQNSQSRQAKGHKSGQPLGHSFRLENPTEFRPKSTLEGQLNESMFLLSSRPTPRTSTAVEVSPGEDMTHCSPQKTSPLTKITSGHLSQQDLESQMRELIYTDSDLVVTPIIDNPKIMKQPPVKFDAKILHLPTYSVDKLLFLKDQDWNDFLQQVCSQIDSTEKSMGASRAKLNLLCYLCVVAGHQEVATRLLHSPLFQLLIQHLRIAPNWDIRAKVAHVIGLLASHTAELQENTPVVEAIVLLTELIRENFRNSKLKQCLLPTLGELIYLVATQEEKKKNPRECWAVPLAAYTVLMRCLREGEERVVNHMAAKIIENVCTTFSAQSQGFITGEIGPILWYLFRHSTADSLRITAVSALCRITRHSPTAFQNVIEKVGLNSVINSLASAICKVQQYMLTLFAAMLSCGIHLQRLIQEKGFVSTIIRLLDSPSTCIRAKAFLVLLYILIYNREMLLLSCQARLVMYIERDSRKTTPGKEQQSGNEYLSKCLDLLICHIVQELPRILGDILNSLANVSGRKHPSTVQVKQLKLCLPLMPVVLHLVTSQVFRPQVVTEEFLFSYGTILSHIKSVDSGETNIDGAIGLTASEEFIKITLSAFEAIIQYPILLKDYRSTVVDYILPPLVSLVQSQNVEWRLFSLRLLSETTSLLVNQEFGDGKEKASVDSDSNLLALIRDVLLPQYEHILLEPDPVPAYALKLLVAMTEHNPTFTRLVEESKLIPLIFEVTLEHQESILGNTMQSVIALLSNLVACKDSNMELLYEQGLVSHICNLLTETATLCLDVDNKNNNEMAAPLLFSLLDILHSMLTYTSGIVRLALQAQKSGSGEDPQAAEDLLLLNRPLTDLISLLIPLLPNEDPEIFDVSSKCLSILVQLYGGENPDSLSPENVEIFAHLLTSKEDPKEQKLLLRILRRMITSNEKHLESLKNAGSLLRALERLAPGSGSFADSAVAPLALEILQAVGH

Molecular target: C-terminally HA-tagged wild type human Ulk4 (human) (UniProt Q96C45)
Assay: co-IP; HEK293T cells transfected with Fg-tagged and HA-tagged Ulk4 constructs; immunoprecipitation and western blot with the indicated antibodies; which tag was precipitated is not given

With “Flag-tagged Ulk4-EE (human Ulk4 T1021E/T1023E, phospho-mimetic) (from UniProt Q96C45 1-1275)” as the substance, how does the binding read?
Its binding is “binds”.
